The supplement of paper PMC7238544
Structures can show the parent of a compound that is named as a salt. ± gives the standard deviation of the averaged measurements. This is one part of the list. The data scatter; read single values as rough.

What was measured:
hAMSC donor 1 [1] = test: Hoechst total cell count ratio vs vehicle control; higher = more cells (less toxicity)
hAMSC donor 2 [2] = test: as above
hAMSC donor 1 [3] = test: transgenic luciferase activity (RLU/mg protein) fold change vs vehicle control (ratio); higher = more transgene expression
hAMSC donor 1 [4] = test: transfection efficiency (EGFP+ cells / Hoechst count) fold change vs vehicle control (ratio); higher = enhanced transfection
hAMSC donor 2 [5] = test: as above
hAMSC donor 2 [6] = test: transgenic luciferase activity (RLU/mg protein) fold change vs vehicle control (ratio); hAMSC are human adipose-derived mesenchymal stem cells given an EGFP-luciferase plasmid by lipofection; higher = more transgene expression
[7] = priming compound concentration 0.2 µM
[8] = priming compound concentration 1.7 µM
[9] = priming compound concentration 13 µM

SMILES	Hoechst total cell count ratio (hAMSC donor 1 [1]; [7])	Hoechst total cell count ratio (hAMSC donor 1 [1]; [8])	Hoechst total cell count ratio (hAMSC donor 1 [1]; [9])	Hoechst total cell count ratio (hAMSC donor 2 [2]; [7])	Hoechst total cell count ratio (hAMSC donor 2 [2]; [8])	Hoechst total cell count ratio (hAMSC donor 2 [2]; [9])	transgenic luciferase activity (hAMSC donor 1 [3]; [9])	transfection efficiency (hAMSC donor 1 [4]; [7])	transfection efficiency (hAMSC donor 1 [4]; [8])	transfection efficiency (hAMSC donor 1 [4]; [9])	transfection efficiency (hAMSC donor 2 [5]; [7])	transfection efficiency (hAMSC donor 2 [5]; [8])	transfection efficiency (hAMSC donor 2 [5]; [9])	transgenic luciferase activity (hAMSC donor 2 [6]; [9])	transgenic luciferase activity (hAMSC donor 1 [3]; [8])	transgenic luciferase activity (hAMSC donor 1 [3]; [7])	transgenic luciferase activity (hAMSC donor 2 [6]; [8])
CC(C)CC(N(C)C)C1(c2ccc(Cl)cc2)CCC1 (centres undefined) [Sibutramine]	1.28 ± 0.24	1.24 ± 0.18	1.35 ± 0.14	1.3 ± 0.22	1.13 ± 0.088	1.23 ± 0.51	0.825 ± 0.58	0.9 ± 0.069	1.14 ± 0.055	0.802 ± 0.23	1.1 ± 0.33	1.26 ± 0.096	0.954 ± 0.42				
C[N+]1(C)CCN(c2ccccc2)CC1 [1,1-Dimethyl-4-phenylpiperazinium iodide]	1.2 ± 0.15	1.04 ± 0.057	1.27 ± 0.032	1.05 ± 0.17	0.859 ± 0.11	0.907 ± 0.089		0.923 ± 0.42	1.44 ± 0.42	0.98 ± 0.15	0.945 ± 0.19	1.39 ± 0.041	1.35 ± 0.048	0.623 ± 0.22			
COc1cc([C@@H]2c3cc4c(cc3[C@H](O)[C@H]3COC(=O)[C@H]23)OCO4)cc(OC)c1OC [Podofilox]	1.25 ± 0.15	0.673 ± 0.053	0.73 ± 0.067	0.791 ± 0.051	0.738 ± 0.075	0.775 ± 0.25		0.77 ± 0.18	0.55 ± 0.13	0.622 ± 0.042	0.8 ± 0.15	0.769 ± 0.095	0.766 ± 0.23		0.356 ± 0.096		
Cc1ncc2n1-c1ccc(Cl)cc1C(c1ccccc1F)=NC2 [Midazolam hydrochloride]	1.35 ± 0.042	1.57 ± 0.049	1.38 ± 0.062	0.923 ± 0.061	1.05 ± 0.072	1.04 ± 0.14		0.891 ± 0.098	0.943 ± 0.21	1.07 ± 0.29	1.21 ± 0.19	1.14 ± 0.02	1.11 ± 0.26			0.898 ± 0.27	
CCN(CC)CCOC(=O)C(O)(c1ccccc1)c1ccccc1 [Benactyzine hydrochloride]	1.31 ± 0.17	1.31 ± 0.018	0.978 ± 0.098	0.993 ± 0.086	1.18 ± 0.014	1.28 ± 0.14		0.783 ± 0.2	0.786 ± 0.067	1.28 ± 0.36	1.13 ± 0.13	1.14 ± 0.035	1.02 ± 0.17			0.522 ± 0.38	
OC1CCCCC1N1CCC(c2ccccc2)CC1 (racemic) [(+/-)-Vesamicol hydrochloride]	1.38 ± 0.11	1.62 ± 0.031	1.29 ± 0.07	1 ± 0.34	1.11 ± 0.077	1.27 ± 0.3		0.942 ± 0.28	0.72 ± 0.37	0.849 ± 0.23	1.15 ± 0.39	0.949 ± 0.034	0.732 ± 0.18			0.91 ± 0.57	
COc1ccc(C(CN(C)C)C2(O)CCCCC2)cc1 (centres undefined) [Venlafaxine hydrochloride]	1.34 ± 0.1	1.35 ± 0.21	1.43 ± 0.053	1.1 ± 0.044	1.23 ± 0.056	1.42 ± 0.23		1.01 ± 0.23	1.25 ± 0.2	1.09 ± 0.19	1.18 ± 0.063	1.03 ± 0.065	1.35 ± 0.1				0.58 ± 0.36
COc1ccc2[nH]cc(C3=CCNCC3)c2c1	1.44 ± 0.097	1.33 ± 0.082	1.46 ± 0.018	0.595 ± 0.094	1.17 ± 0.11	1.04 ± 0.11		1.49 ± 0.38	2.13 ± 0.36		1.49 ± 0.24	1.59 ± 0.11			1.06 ± 0.76		
C[C@]12CCC(=O)C=C1CC[C@@H]1[C@@H]2CC[C@@]2(C)[C@H]1CC[C@]2(C)O [Methyltestosterone]	1.34 ± 0.29	1.21 ± 0.12	1.22 ± 0.14	1.26 ± 0.41	1.64 ± 0.2	1.13 ± 0.33	0.594 ± 0.19	1.06 ± 0.2	1.19 ± 0.29	0.826 ± 0.26	1.05 ± 0.21	1 ± 0.079	1 ± 0.43				
C[C@H]1CCC[C@H](O)CCCCCc2cc(O)cc(O)c2C(=O)O1 [Zeranol]	1.29 ± 0.17	1.14 ± 0.16	1.15 ± 0.12	1.49 ± 0.21	1.09 ± 0.067	1.36 ± 0.091	1 ± 0.15	0.909 ± 0.27	0.851 ± 0.17	1.31 ± 0.33	0.988 ± 0.11	1.27 ± 0.12	0.804 ± 0.084				
CN1CCC23CCCCC2C1Cc1ccc(O)cc13 [Dextrorphan D-tartrate]	1.77 ± 0.096	1.19 ± 0.16	1.98 ± 0.29	1.15 ± 0.052	1.08 ± 0.064	1.21 ± 0.025		0.701 ± 0.057	1.28 ± 0.16	0.596 ± 0.28	1.03 ± 0.21	1.02 ± 0.073	0.824 ± 0.11	0.648 ± 0.28			
c1cncc([C@@H]2CCCN2)c1 [Nornicotine]	1.58 ± 0.24	1.46 ± 0.084	1.31 ± 0.18	1.36 ± 0.21	1.23 ± 0.1	1.29 ± 0.19	1 ± 0.31	1.09 ± 0.22	0.872 ± 0.18	0.966 ± 0.35	0.971 ± 0.055	1.14 ± 0.11	1.23 ± 0.26				
